Where a name gives a salt, the structure may show the parent alone.
Type: physicochemical
Description: Tests carried out: Weight change *, pH *, Lidocaine Assay #, Rheology #, Hardness and compressibility *, In vitro release study †
The 28-99 PVA hydrogels (batch numbers 16 and 17 in Table 5 above) were evaluated for various parameters up to 6 months storage. The same parameters for batch numbers 18 and 19 (4-88 PVA) up to the 3 month time point are also discussed.

Structure (SMILES): CCN(CC)CC(=O)Nc1c(C)cccc1C [Lidocaine HCl, lidocaine hydrochloride]
- stability of lidocaine HCl in PVA-THB hydrogels: no appreciable degradation

From US20240009139A1, “STABLE WOUND CARE FORMULATION” (JENARRON THERAPEUTICS LIMITED, priority 2017, published 2024)
